Laboratory results: article PMC11508090
Results are given in words; binding and its absence hold for the method and conditions named. In cells and extracts the contact can be indirect. A yes stands for co-enrichment or nearness to the bait. Other partners may have been found. For some of these results: A no says only that the protein was not detected with the bait.

Chains of the proteins cited; added tags and fusions are not shown.
UniProt P51979: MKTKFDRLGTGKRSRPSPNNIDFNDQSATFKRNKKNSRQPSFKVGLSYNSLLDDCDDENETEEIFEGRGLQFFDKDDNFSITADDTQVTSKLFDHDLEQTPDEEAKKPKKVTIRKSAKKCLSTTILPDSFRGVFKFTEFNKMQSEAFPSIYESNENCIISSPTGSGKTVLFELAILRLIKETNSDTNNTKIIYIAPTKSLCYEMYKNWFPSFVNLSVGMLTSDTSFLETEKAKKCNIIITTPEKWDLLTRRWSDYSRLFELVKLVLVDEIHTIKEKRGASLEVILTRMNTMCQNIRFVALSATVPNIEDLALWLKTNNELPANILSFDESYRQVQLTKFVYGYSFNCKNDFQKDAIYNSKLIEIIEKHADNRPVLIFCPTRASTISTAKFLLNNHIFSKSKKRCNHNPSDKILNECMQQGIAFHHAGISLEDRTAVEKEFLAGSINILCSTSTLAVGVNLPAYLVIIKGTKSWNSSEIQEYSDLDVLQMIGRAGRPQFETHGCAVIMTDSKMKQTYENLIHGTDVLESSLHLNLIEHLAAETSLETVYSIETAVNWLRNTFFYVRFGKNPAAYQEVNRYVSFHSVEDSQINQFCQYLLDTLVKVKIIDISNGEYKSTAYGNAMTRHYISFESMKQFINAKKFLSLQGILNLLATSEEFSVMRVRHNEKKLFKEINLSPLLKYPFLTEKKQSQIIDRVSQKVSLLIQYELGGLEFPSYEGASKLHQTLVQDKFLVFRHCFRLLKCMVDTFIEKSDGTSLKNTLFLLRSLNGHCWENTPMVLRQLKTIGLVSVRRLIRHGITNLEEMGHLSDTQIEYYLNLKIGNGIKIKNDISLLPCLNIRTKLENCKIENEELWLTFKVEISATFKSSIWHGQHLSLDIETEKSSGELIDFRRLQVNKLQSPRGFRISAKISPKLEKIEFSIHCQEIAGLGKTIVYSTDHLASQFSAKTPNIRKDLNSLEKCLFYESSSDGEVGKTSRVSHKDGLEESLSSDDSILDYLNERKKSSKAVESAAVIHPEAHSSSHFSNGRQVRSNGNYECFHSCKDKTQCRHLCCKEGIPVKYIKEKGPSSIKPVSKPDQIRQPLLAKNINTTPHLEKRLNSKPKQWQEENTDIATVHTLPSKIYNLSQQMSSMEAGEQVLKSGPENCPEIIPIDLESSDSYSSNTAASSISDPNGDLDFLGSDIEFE

Tests used:
[1] = biological target: Zip4iTurboID (S. cerevisiae); assay: proximity labelling; TurboID fusion allele (homozygous, or heterozygous where said) in ndt80 diploid cells, 24 h in sporulation medium, endogenous biotin; TCA extract, 8% or 12% SDS-PAGE, streptavidin:HRP blot; also done in mutant backgrounds in which the labelling was kept
[2] = biological target: T1, Zip3iTurboID (S. cerevisiae) (UniProt Q06032); assay: as above
T1 sequence: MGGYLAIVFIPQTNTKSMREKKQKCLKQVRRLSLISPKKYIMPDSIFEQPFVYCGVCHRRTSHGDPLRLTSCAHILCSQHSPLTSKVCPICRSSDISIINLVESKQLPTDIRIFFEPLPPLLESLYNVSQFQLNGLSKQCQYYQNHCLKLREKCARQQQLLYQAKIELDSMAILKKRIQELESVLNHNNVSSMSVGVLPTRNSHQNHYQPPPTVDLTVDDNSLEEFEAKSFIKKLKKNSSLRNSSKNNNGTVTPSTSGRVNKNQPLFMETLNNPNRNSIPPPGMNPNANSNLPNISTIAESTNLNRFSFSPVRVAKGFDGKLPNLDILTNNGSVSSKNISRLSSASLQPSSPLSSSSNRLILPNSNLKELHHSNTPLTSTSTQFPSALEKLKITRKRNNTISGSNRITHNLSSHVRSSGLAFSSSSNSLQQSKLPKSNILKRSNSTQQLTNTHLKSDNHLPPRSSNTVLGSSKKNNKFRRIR

[3] = biological target: Zip4iTurboID (S. cerevisiae); assay: proximity labelling; eleven TurboID fusion strains (ndt80, homozygous) and a no-TurboID control, ~24 h sporulation, two replicates; TCA extract, streptavidin-sepharose pull-down, trypsin, UPLC-MS/MS; targets = in both replicates and in neither control
[4] = biological target: Mer3-TurboID (S. cerevisiae) (UniProt P51979); assay: as above
[5] = biological target: T2, TurboID-Gmc2 (S. cerevisiae) (UniProt Q06201); assay: as above
T2 sequence: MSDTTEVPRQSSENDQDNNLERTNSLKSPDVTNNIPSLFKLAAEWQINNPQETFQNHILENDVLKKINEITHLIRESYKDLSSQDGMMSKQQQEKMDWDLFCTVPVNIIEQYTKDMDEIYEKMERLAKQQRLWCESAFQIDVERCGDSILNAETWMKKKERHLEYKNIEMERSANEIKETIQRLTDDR

[6] = biological target: T3, Mlh3-TurboID (S. cerevisiae) (UniProt Q12083); assay: as above
T3 sequence: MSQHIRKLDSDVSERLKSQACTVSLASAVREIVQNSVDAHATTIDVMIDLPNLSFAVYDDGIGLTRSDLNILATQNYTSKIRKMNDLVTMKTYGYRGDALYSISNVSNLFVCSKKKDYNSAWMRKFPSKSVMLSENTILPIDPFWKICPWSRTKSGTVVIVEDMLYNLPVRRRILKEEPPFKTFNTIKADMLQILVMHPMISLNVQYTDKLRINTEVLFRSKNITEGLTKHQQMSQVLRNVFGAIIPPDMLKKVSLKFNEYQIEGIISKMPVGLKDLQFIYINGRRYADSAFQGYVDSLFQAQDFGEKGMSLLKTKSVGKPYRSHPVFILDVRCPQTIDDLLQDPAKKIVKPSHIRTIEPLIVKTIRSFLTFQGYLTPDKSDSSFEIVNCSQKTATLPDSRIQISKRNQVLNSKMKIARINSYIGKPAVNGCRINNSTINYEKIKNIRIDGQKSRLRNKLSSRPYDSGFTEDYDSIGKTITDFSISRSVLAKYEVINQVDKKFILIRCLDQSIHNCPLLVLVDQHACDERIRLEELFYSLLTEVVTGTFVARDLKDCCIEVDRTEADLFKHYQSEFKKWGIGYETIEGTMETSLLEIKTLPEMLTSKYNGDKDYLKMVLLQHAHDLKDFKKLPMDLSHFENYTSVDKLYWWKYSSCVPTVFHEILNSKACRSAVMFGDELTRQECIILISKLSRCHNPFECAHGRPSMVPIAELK

[7] = biological target: Zip4-TurboID (S. cerevisiae); assay: as above

B1: Zip3 (protein, UniProt Q06032 1-482)
chain: MGGYLAIVFIPQTNTKSMREKKQKCLKQVRRLSLISPKKYIMPDSIFEQPFVYCGVCHRRTSHGDPLRLTSCAHILCSQHSPLTSKVCPICRSSDISIINLVESKQLPTDIRIFFEPLPPLLESLYNVSQFQLNGLSKQCQYYQNHCLKLREKCARQQQLLYQAKIELDSMAILKKRIQELESVLNHNNVSSMSVGVLPTRNSHQNHYQPPPTVDLTVDDNSLEEFEAKSFIKKLKKNSSLRNSSKNNNGTVTPSTSGRVNKNQPLFMETLNNPNRNSIPPPGMNPNANSNLPNISTIAESTNLNRFSFSPVRVAKGFDGKLPNLDILTNNGSVSSKNISRLSSASLQPSSPLSSSSNRLILPNSNLKELHHSNTPLTSTSTQFPSALEKLKITRKRNNTISGSNRITHNLSSHVRSSGLAFSSSSNSLQQSKLPKSNILKRSNSTQQLTNTHLKSDNHLPPRSSNTVLGSSKKNNKFRRIR
In the case of B1, the binding [1] is reported as “binds weakly”, the binding [2] is reported as “binds” and the binding [3] is reported as “binds”. For the same binder, the binding [4] was “binds”, the binding [5] was “no binding” and the binding [6] was “no binding”. The binding [7] was “binds”.
